In patent EP4242303A1 (Novozymes A/S, dated 2023):
Changes are numbered by the printed parent chain. Numbers in names are those of the source. No constants are given. Whether binding was seen depends on the method and setting. Some binding calls cover weakened binding; strength is not graded here. Values belong to the binder of their own block, whether it stands above or below them.

Tests used:
[1] = biological target: T1, deamidase polypeptide from Chryseobacterium sp-62563 (deamidase domain of the pro-form SEQ ID NO: 5) (Chryseobacterium sp-62563); assay: nanoDSF of the fusion polypeptide SEQ ID NO: 5
T1 sequence: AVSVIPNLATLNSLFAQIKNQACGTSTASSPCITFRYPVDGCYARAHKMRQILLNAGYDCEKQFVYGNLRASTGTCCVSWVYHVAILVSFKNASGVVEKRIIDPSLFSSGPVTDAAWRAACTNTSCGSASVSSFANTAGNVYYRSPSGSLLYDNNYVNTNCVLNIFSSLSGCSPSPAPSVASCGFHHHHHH

[2] = biological target: T1, deamidase polypeptide from Chryseobacterium sp-62563 (deamidase domain of the pro-form SEQ ID NO: 5) (Chryseobacterium sp-62563); assay: nanoDSF of the variant fusion polypeptide (V23S)
[3] = biological target: T1, deamidase polypeptide from Chryseobacterium sp-62563 (deamidase domain of the pro-form SEQ ID NO: 5) (Chryseobacterium sp-62563); assay: nanoDSF of the variant fusion polypeptide (F99K)
[4] = biological target: T1, deamidase polypeptide from Chryseobacterium sp-62563 (deamidase domain of the pro-form SEQ ID NO: 5) (Chryseobacterium sp-62563); assay: nanoDSF of the variant fusion polypeptide (Y45G)
[5] = biological target: T1, deamidase polypeptide from Chryseobacterium sp-62563 (deamidase domain of the pro-form SEQ ID NO: 5) (Chryseobacterium sp-62563); assay: nanoDSF of the variant fusion polypeptide (F99A)
[6] = biological target: T1, deamidase polypeptide from Chryseobacterium sp-62563 (deamidase domain of the pro-form SEQ ID NO: 5) (Chryseobacterium sp-62563); assay: nanoDSF of the variant fusion polypeptide (Y94P)
[7] = biological target: T1, deamidase polypeptide from Chryseobacterium sp-62563 (deamidase domain of the pro-form SEQ ID NO: 5) (Chryseobacterium sp-62563); assay: nanoDSF of the variant fusion polypeptide (F38C)
[8] = biological target: T1, deamidase polypeptide from Chryseobacterium sp-62563 (deamidase domain of the pro-form SEQ ID NO: 5) (Chryseobacterium sp-62563); assay: nanoDSF of the variant fusion polypeptide (Y45T)
[9] = biological target: T1, deamidase polypeptide from Chryseobacterium sp-62563 (deamidase domain of the pro-form SEQ ID NO: 5) (Chryseobacterium sp-62563); assay: nanoDSF of the variant fusion polypeptide (F99G)

B1: propeptide from Chryseobacterium sp-62563 (wildtype propeptide domain of the protein glutamine deamidase pro-form SEQ ID NO: 5) (other)
chain: NQDPNLVAKESNETAMKDFGKTVPVGIEKEDGKFKISFMVTAQPYEIKDSKENAAYISMIKTAVENETPIHVFLKANTNEIAKVDKATDDDIRYFKSVFTKEVKEENRK
binding [1]: binds

B2: variant deamidase propeptide V23S of Chryseobacterium sp-62563 (SEQ ID NO: 2) (other)
chain: B1 chain with V23S
binding [2]: binds

B3: variant deamidase propeptide F99K of Chryseobacterium sp-62563 (SEQ ID NO: 2) (other)
chain: B1 chain with F99K
binding [3]: binds

B5: variant deamidase propeptide F99A of Chryseobacterium sp-62563 (SEQ ID NO: 2) (other)
chain: B1 chain with F99A
binding [5]: binds

B7: variant deamidase propeptide F38C of Chryseobacterium sp-62563 (SEQ ID NO: 2) (other)
chain: B1 chain with F38C
binding [7]: binds

B9: variant deamidase propeptide F99G of Chryseobacterium sp-62563 (SEQ ID NO: 2) (other)
chain: B1 chain with F99G
binding [9]: binds

The remaining lines, values ahead:

binding [4]: binds
B4: variant deamidase propeptide Y45G of Chryseobacterium sp-62563 (SEQ ID NO: 2) (other)
chain: B1 chain with Y45G

binding [6]: binds
B6: variant deamidase propeptide Y94P of Chryseobacterium sp-62563 (SEQ ID NO: 2) (other)
chain: B1 chain with Y94P

binding [8]: binds
B8: variant deamidase propeptide Y45T of Chryseobacterium sp-62563 (SEQ ID NO: 2) (other)
chain: B1 chain with Y45T
